Experimental data published in patent publication US20200369728A1, “PEPTIDOMIMETIC MACROCYCLES AND USES THEREOF” (Aileron Therapeutics, Inc., priority 2015, published 2020).
In brackets after ≈: the same amount, converted by molar mass. For at least one compound, name, drawing or mass did not settle the structure.

Experiments:
[1] = FIGURE 19
Text: Table printed on a drawing sheet, FIGURE 19
First reader's note: The table is an inset in a plot of solubility against the number of amino acids C-terminal to the cross-link.

[2] = system: MOLT-3; assay: WST-1 / MTT cell proliferation assay, MOLT-3; assay type: cell-based, human; details: single agent, 72 hours

SMILES | Solubility [1] [µg/mL] | effect on MOLT-3 cell proliferation [2]
CCCC[C@H](NC(=O)[C@H](C)NC(=O)[C@H](C)NC(=O)[C@]1(C)CCCC=CCCCCCC[C@@](C)(NC(=O)[C@H](Cc2ccccc2)NC(=O)[C@@H](NC(=O)[C@H](CC(C)C)NC(C)=O)[C@@H](C)O)C(=O)N[C@@H](C)C(=O)N[C@@H](Cc2ccc(O)cc2)C(=O)N[C@@H](Cc2c[nH]c3ccccc23)C(=O)N[C@@H](C)C(=O)N[C@@H](CCC(N)=O)C(=O)N[C@@H](CC(C)C)C(=O)N1)C(=O)N[C@@H](C)C(N)=O [SP69] | 3000 (≈ 1690 µM) | –
C/C=C1\NC(=O)[C@H]2CSSCC/C=C/[C@H](CC(=O)N[C@H](C(C)C)C(=O)N2)OC(=O)[C@H](C(C)C)NC1=O [romidepsin, reference compound] | – | inhibited MOLT-3 cell proliferation
